The data set can be described thus: peptide made by a vendor.

With “cyclo(Trp-Ser-Trp-Leu-Leu-Lys-Cys-Tyr-Ala-Asn-Pro-His-Leu-Pro)”, the “purity (crude or final not stated)” value is recorded as 97%.
